A negative result means that nothing was seen under these conditions. For part of these data: The exact form of at least one protein or probe is not confirmed.
Assays:
[1] = test system: IgG1 (mouse) (Mus musculus); experiment: pull-down; details: Protein L beads, single-stranded DNA
IgG2-Fc (Homo sapiens) [2] = experiment: pull-down; details: P = NapdU; 37C, bead partitioning; single-stranded DNA; variant of 5406-56_3
[3] = test system: IgG2-Kappa (Homo sapiens); experiment: pull-down; details: Protein L beads, single-stranded DNA
IgM (cow) (Bos taurus) = experiment: pull-down; details: P = NapdU, Zorbax beads, SB18, 37C, single-stranded DNA
[4] = test system: Total IgG (cow) (Bos taurus); experiment: pull-down; details: P = NapdU, Zorbax beads, SB18, 37C, single-stranded DNA
[5] = test system: Total IgG (goat) (Capra hircus); experiment: pull-down; details: P = NapdU, Zorbax beads, SB18, 37C, single-stranded DNA
[6] = test system: Total IgG (mouse) (Mus musculus); experiment: pull-down; details: P = NapdU, Zorbax beads, SB18, 37C, single-stranded DNA
[7] = test system: Total IgG (rabbit) (Oryctolagus cuniculus); experiment: pull-down; details: P = NapdU; Zorbax beads, SB18, 37C; single-stranded DNA; variant of 5406-56_3
[8] = test system: Total IgG (sheep) (Ovis aries); experiment: pull-down; details: P = NapdU, Zorbax beads, SB18, 37C, single-stranded DNA
[9] = test system: Total IgG (cow) (Bos taurus); experiment: filter binding; details: Zorbax, SB18, 37 C, label: 32P, single-stranded DNA
[10] = test system: Total IgG (goat) (Capra hircus); experiment: filter binding; details: Zorbax, SB18, 37 C, label: 32P, single-stranded DNA
[11] = test system: Total IgG (sheep) (Ovis aries); experiment: filter binding; details: Zorbax, SB18, 37 C, label: 32P, single-stranded DNA
IgD (Homo sapiens) = experiment: filter binding; details: n (P) = NapdU; Zorbax, SB18, 37 C; label: 32P; single-stranded DNA
IgG2-Fc (Homo sapiens) [12] = experiment: filter binding; details: n (P) = NapdU; Zorbax, SB18, 37 C; label: 32P; single-stranded DNA
IgG4-Fc (Homo sapiens) = experiment: filter binding; details: n (P) = NapdU; Zorbax, SB18, 37 C; label: 32P; single-stranded DNA
[13] = test system: Total IgG (monkey) (monkey); experiment: filter binding; details: n (P) = NapdU; Zorbax, SB18, 37 C; label: 32P; single-stranded DNA
[14] = test system: Total IgG (rabbit) (Oryctolagus cuniculus); experiment: filter binding; details: n (P) = NapdU; Zorbax, SB18, 37 C; label: 32P; single-stranded DNA
[15] = P = NapdU, SB17, 37C, variant of 5406-56_3
[16] = n (P) = NapdU, SB17, 37 C, label: 32P

Chains of the proteins cited; added tags and fusions are not shown. Chains listed by the source or under a name are the forms on record and can include a tag or linker.
IgG2-Fc (Homo sapiens), one chain, as listed by the source: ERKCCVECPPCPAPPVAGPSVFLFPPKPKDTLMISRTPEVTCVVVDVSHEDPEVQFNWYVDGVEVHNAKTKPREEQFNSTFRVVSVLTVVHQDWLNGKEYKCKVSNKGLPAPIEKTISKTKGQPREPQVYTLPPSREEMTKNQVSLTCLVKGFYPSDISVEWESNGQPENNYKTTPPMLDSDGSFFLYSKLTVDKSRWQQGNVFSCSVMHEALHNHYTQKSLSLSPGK
IgG4-Fc (Homo sapiens), one chain, as listed by the source: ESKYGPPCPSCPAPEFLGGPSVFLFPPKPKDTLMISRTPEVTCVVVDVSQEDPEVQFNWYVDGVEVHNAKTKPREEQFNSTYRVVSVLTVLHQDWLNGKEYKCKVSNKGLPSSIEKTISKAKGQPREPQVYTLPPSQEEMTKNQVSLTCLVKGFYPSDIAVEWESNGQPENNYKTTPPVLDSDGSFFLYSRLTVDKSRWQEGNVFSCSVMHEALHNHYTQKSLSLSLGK

Measured: binding result

GGTACGATTTTCAGTTGGATCCAGTAC [5406-56_48]
no binding: [1]; [15] | IgG2-Fc (Homo sapiens) [2] | [3]; [15] | IgM (cow) (Bos taurus); variant of 5406-56_3 | [4]; variant of 5406-56_3 | [5]; variant of 5406-56_3 | [6]; variant of 5406-56_3 | [7] | [8]; variant of 5406-56_3

TGGCGAACTCCCTGAATGCTCTTGTCTT [14125-144_30]
no binding: [1]; P = NapdU, SB17, 37C, variant of 14125-144_3 | IgM (cow) (Bos taurus); variant of 14125-144_3 | [4]; variant of 14125-144_3 | [5]; variant of 14125-144_3 | [6]; variant of 14125-144_3 | [8]; variant of 14125-144_3

GCCTGCACGATGGCGAACTCCCTGAATGCTCTTGTCTTAAGTCCCCAACA [14125-144_3]
no binding: [1]; [16] | [9]; n (P) = NapdU | [10]; n (P) = NapdU | [11]; n (P) = NapdU

CCTCCATACGGTACGATTTTCAGTTGGATCCAGTACCTGGCTGGAGAGAA [5406-56_3]
no binding: [1]; [16] | [3]; [16] | IgD (Homo sapiens) | IgG2-Fc (Homo sapiens) [12] | IgG4-Fc (Homo sapiens) | [9]; n (P) = NapdU | [10]; n (P) = NapdU | [13] | [14] | [11]; n (P) = NapdU

CGGCACTCCACATCCAAGACTGCGGTTACCTTGTAGGCGATTATGGGCAG [5334-8_3]
no binding: [1]; n (P) = 2NapdU, SB17, 37 C, label: 32P | [9]; n (P) = 2NapdU | [10]; n (P) = 2NapdU | [11]; n (P) = 2NapdU

Source: patent US20210317456
